Laboratory results reported in article PMC4809424.
Results are given in words; binding and its absence hold for the method and conditions named. In cells and extracts the contact can be indirect. Here binding means that the protein was enriched with, or labelled near, the bait; the list need not be complete.

Protein sequences, listed by entry. Tags and fused reporters are not part of them.
UniProt P14635: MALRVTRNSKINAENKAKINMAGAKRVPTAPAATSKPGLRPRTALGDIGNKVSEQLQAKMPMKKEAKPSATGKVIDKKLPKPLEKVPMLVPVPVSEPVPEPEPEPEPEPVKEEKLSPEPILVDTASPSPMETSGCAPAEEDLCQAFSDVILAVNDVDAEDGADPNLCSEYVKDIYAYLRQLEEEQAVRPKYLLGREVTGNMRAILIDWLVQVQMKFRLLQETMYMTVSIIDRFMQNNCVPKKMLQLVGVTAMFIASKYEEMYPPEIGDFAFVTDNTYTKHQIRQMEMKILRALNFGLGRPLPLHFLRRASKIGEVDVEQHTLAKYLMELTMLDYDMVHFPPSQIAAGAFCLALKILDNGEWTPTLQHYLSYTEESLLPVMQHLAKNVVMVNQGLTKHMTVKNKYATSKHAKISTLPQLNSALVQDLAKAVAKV

Molecular target: Flag-tagged CCNB1 (UniProt P14635)
Test: affinity purification with mass spectrometry; HCT116 cells transfected with Flag-tagged CCNB1; RIPA lysis buffer; anti-Flag antibody-conjugated agarose; eluted with 100 uM Flag peptide; trypsin digest, mass spectrometry

- binding: binds
B1: USP22 (endogenous) (enzyme, UniProt Q9UPT9 1-525)
chain: MVSRPEPEGEAMDAELAVAPPGCSHLGSFKVDNWKQNLRAIYQCFVWSGTAEARKRKAKSCICHVCGVHLNRLHSCLYCVFFGCFTKKHIHEHAKAKRHNLAIDLMYGGIYCFLCQDYIYDKDMEIIAKEEQRKAWKMQGVGEKFSTWEPTKRELELLKHNPKRRKITSNCTIGLRGLINLGNTCFMNCIVQALTHTPLLRDFFLSDRHRCEMQSPSSCLVCEMSSLFQEFYSGHRSPHIPYKLLHLVWTHARHLAGYEQQDAHEFLIAALDVLHRHCKGDDNGKKANNPNHCNCIIDQIFTGGLQSDVTCQVCHGVSTTIDPFWDISLDLPGSSTPFWPLSPGSEGNVVNGESHVSGTTTLTDCLRRFTRPEHLGSSAKIKCSGCHSYQESTKQLTMKKLPIVACFHLKRFEHSAKLRRKITTYVSFPLELDMTPFMASSKESRMNGQYQQPTDSLNNDNKYSLFAVVNHQGTLESGHYTSFIRQHKDQWFKCDDAIITKASIKDVLDSEGYLLFYHKQFLEYE
